Experimental data reported in paper PMC12454907.
Results are given in words; binding and its absence hold for the method and conditions named. Binding seen in cells or lysates may run through a third protein. Binding can be weak; no strength is given. Tags and fused reporters may be left off the sequences shown.

Tests used:
Experiment in all cases: pull-down; GST fusion or GST on glutathione agarose resin, induced His-OsSAP5 added, 2 h at 4°C, 25 mM Tris-HCl pH 8.0, 150 mM NaCl, 1/2,000 NP-40, 1/20 glycerol; blots with anti-His and anti-GST
[1] = molecular target: GST-OsGF14e (rice (Oryza sativa))
[2] = molecular target: GST-OsGF14b (rice (Oryza sativa))
[3] = molecular target: GST-OsGF14d (rice (Oryza sativa))

- binding [1]: binds
- binding [2]: binds
- binding [3]: binds
B1: His-OsSAP5 (protein, UniProt Q6H754 1-154)
chain: MAEEQRWQEGCHRLCANNCGFFGSPATLDLCSKCYRDRQGRESTAPVVVAAAASACPATHPSSPSSSSCPAFLPSSTAAEAGVVVAAVAKASRCASCRKRVGLTGFACRCGGTFCGAHRYPERHACGFDFKAAGRDAIARANPLIKGDKLKDKI
